Experimental data: patent publication US20250312352A1, “GLP-1R MODULATING COMPOUNDS” (Gilead Sciences, Inc., priority 2021, published 2025)
Some of these results come from one statement about several compounds together.

Assay: Pharmacokinetic (PK) studies, monkey oral PK
Type: in vivo, Cynomolgus monkeys
Conditions: over 24 hours; for fold higher AUC0-24 than CE-1: oral 2 mg/kg vs CE-1 at 1 mg/kg; for fold higher AUC0-24 than CE-2: same oral dose 2 mg/kg
Procedure: Examples 54 and 253 were tested along with comparative examples CE-1 and CE-2.
Compounds CE-2, Example 54 or Example 253 were combined with a mixture of 10% NMP (v:v) and 90% PEG300 (v:v), and the mixture was stirred until a homogeneous solution was obtained (1 mg/mL final concentration of test article).
Compound CE-1 was combined with a mixture of 15% 2-hydroxypropyl-o-cyclodextrin (w:v) and 85% Mili-Q water (v:v), and the mixture was stirred until a homogeneous solution was obtained (0.5 mg/mL final concentration of test article).
Young adult non-naive Cynomolgus monkeys with weight about 2.5-5 kg (n=1-3/test article/route) were fasted overnight and then dosed with either CE-1 (at 1 mg test article per kg animal weight), CE-2 (at 2 mg test article per kg animal weight), Example 54 (at 2 mg test article per kg animal weight), or Example 253 (at 2 mg test article per kg animal weight). Food was supplied approximately 4 hours post dose and animals were provided with free access to water all the time. Animals were restrained at designated time points for blood sampling. Approximately 500 μL of blood samples was taken via cephalic or saphenous vein into EDTA-K2 tubes. For oral administration (PO): blood samples were generally collected pre-dose, and at 15 min, 30 min, 1 hr, 2 hr, 4 hr, 8 hr, 12 hr, and 24 hr time points after dosing. Blood was maintained on wet ice, in chilled cryoracks, or at approximately 5° C. prior to centrifugation to obtain plasma. Centrifugation was conducted within 1 hour of collection. Plasma (approximately 200 μL) was placed into a micronic tubes containing 4 μL of formic acid (the final concentration of formic acid in plasma was approximately 2%) and samples were vortex mixed. Samples were maintained on dry ice prior to storage at approximately −70° C.
LC-MS/MS assays were utilized to quantify the concentration of the test articles in plasma as follows.
50 μL plasma sample was mixed with 350 μL of ACN combined with an internal standard. The mixture was then vortexed for about 1-5 min, and centrifuged at about 4,000-5,800 rpm for about […]. An aliquot of 1 μL supernatant was used for LC-MS/MS analysis.
MS conditions: A Sciex API 6500 equipped with electrospray ionization in the positive ion selected reaction monitoring mode was used for detection.
HPLC conditions • Mobile Phase A: H2O-0.1% Formic Acid • Mobile Phase B: ACN-0.1% Formic Acid […]
Pharmacokinetics parameters, including area under the curve (AUC0-24), maximum plasma concentration (Cmax), time to reach maximum plasma concentration (Tma), oral bioavailability (F %), etc., were calculated using Dotmatics software in non-compartmental model.

O=C(O)c1ccc2nc(Cc3cc(F)c(-c4cccc(OCc5ncc(C(F)(F)F)s5)n4)cc3F)n(C[C@@H]3CCO3)c2c1 [Example 54, (S)-2-(2,5-difluoro-4-(6-((5-(trifluoromethyl)thiazol-2-yl)methoxy)pyridin-2-yl)benzyl)-1-(oxetan-2-ylmethyl)-1H-benzo[d]imidazole-6-carboxylic acid]
fold higher AUC0-24 than CE-1: 134-298 fold | fold higher AUC0-24 than CE-2: 2-5 fold

O=C(O)c1cc(F)c2nc(Cc3cc(F)c(-c4cccc(OCc5ncc(C(F)(F)F)s5)n4)cc3F)n(C[C@@H]3CCO3)c2c1 [Example 253, (S)-2-(2,5-difluoro-4-(6-((5-(trifluoromethyl)thiazol-2-yl)methoxy)pyridin-2-yl)benzyl)-4-fluoro-1-(oxetan-2-ylmethyl)-1H-benzo[d]imidazole-6-carboxylic acid]
fold higher AUC0-24 than CE-1: 134-298 fold | fold higher AUC0-24 than CE-2: 2-5 fold
